# Laboratory results as given in paper PMC12040169 (PLOS Biology, 2025).
# Some of the results follow.
# Tested on: T1, CTL2-GFP (C. trachomatis L2/434/Bu, GFP-expressing)
# T1 construct: L2/434/Bu, GFP-expressing
# Set-up: species or system HeLa; Intracellular C. trachomatis growth in HeLa cells, bulk GFP fluorescence relative to DMSO
# Details: bulk GFP, single well; 28.5 h, 10 µM; inhibitor
row,SMILES,% of control remaining [%]
1,CCCNC(=O)Nc1ccc(Cl)c(C(=O)O)c1 [CBK287009],159.719
2,O=C(CN(Cc1ccccc1Cl)S(=O)(=O)c1ccc(Cl)cc1)NC1CCCCC1 [CBK264659],104.039
3,O=C(CC1(O)C(=O)N(CCc2ccccc2)c2ccc(Br)cc21)c1ccncc1 (stereo not drawn) [CBK293976],148.791
4,Cc1ccc(S(=O)(=O)N(CC(=O)N2CCN(C)CC2)Cc2ccc(Cl)cc2Cl)cc1 [CBK265144],165.601
5,CCc1nc(N)nc(N2CCC3(CCC(CNC(C)=O)O3)CC2)c1C (stereo not drawn) [CBK307168],119.429
6,Cc1ncsc1CCOc1nc2cc(Cl)c(Cl)cc2nc1NC(C)C [CBK115744],100
7,O=CN1CCc2c([nH]c3ccccc23)C12CCCN(Cc1ccc(C(F)(F)F)cc1)C2 (stereo not drawn) [CBK039587],124.103
8,O=c1[nH]c2ncc(-c3cccc(OC(F)(F)F)c3)nc2n1C1CCCCC1 [CBK064187],153.257
9,COc1cc(C(=O)N2CCC3(CC2)NC(=O)c2cc(C)ccc2O3)ccc1C [CBK166276],148.333
10,O=C(Nc1ccc2[nH]c(C3CCCCC3)nc2c1)C1CCCCC1 [CBK020680],124.09
11,CN1CCC(C(=O)Nc2cccc(Cn3cccn3)c2)C1 (stereo not drawn) [CBK281991],89.0109
12,COc1nccnc1/C=C/c1ccccc1 [CBK106876],95.6084
13,c1ccc(CC(NCc2c[nH]c3ccccc23)c2ccccc2)cc1 (stereo not drawn) [CBK262087],73.7428
14,CCC(CN1CCOCC1)NC(=O)Cc1c(C)[nH]c2ccc(F)cc12 (stereo not drawn) [CBK282774],113.238
15,O=C(C[S+]([O-])c1nc2ccccc2[nH]1)N1CCOCC1 (stereo not drawn) [CBK016397],100.858
16,O=C(O)c1cccc(NC(=O)c2cnc(-c3ccccc3)c(-c3ccco3)c2)c1 [CBK036710],200.647
17,CCOc1ccc(S(=O)(=O)N2CCC(C(=O)N3CCOCC3)CC2)cc1Cl [CBK270288],147.599
18,O=C1NC(=S)N/C1=C/c1cc2c(cc1Cl)OCO2 [CBK261818],120.123
19,Cc1ccc(CN(CCCN(C)C)Cc2cnc(C)n2C)o1 [CBK283188],144.79
20,CCn1nc(C)c(CN2CCCC(c3cc4cccnc4[nH]3)C2)c1C (stereo not drawn) [CBK284977],142.456

# 2 records drawn at random from the list so far, as already listed:
row,SMILES,% of control remaining [%]
19,Cc1ccc(CN(CCCN(C)C)Cc2cnc(C)n2C)o1 [CBK283188],144.79
3,O=C(CC1(O)C(=O)N(CCc2ccccc2)c2ccc(Br)cc21)c1ccncc1 (stereo not drawn) [CBK293976],148.791

# (further entries)

row,SMILES,% of control remaining [%]
1,CCOC(=O)N1CCN(C2CCCN(Cc3cnc(N(C)C)s3)C2)CC1 (stereo not drawn) [CBK307041],169.577
2,O=C(O)c1cc(-c2ccc(-c3ccc(Cl)c(C(F)(F)F)c3)o2)nc2ccc(F)cc12 [CBK300501],121.429
3,O=C(CCN1C(=O)COc2ccccc21)NCCCN1CCN(c2ccccc2F)CC1 [CBK294469],144.873
4,CC(=O)NCC1CC(=O)N(c2ccc(Br)cc2)C1 (stereo not drawn) [CBK008134],136.537
5,O=C(N[C@@H](Cn1cc(Cl)c(=O)[nH]c1=O)C(=O)O)C1CCCCC1 [CBK289648],156.093
6,CC(=S)NCC1CC(c2ccc(N3CC[S+]([O-])CC3)c(F)c2)=NO1 (stereo not drawn) [CBK017992],107.414
7,COc1nc(OC)nc(OC2=CC(=O)CC(C)(C)C2)n1 [CBK020772],119.73
8,O=C(c1ccco1)N1CCN(c2cc(-c3ccc(OCc4ccccc4)cc3)ncn2)CC1 [CBK037844],121.814
9,COc1ccccc1/C=N/C12CN3CN(CN(C3)C1)C2 [CBK261387],109.117
10,COC(=O)[C@@H]1Cc2ncn(C(C)C)c2CN1S(=O)(=O)c1ccc([N+](=O)[O-])cc1 [CBK288985],134.607
11,Cc1c(C(=O)Nc2ccc(S(=O)(=O)N(C)Cc3ccccc3)cc2)cccc1[N+](=O)[O-] [CBK267534],86.9395
12,Cc1ccc(S(=O)(=O)NCCNc2ccc([N+](=O)[O-])cc2C(F)(F)F)cc1 [CBK265140],108.772
13,COCCNC(=O)c1ccc(-c2ccccc2C)nc1NC(C)=O [CBK106325],107.463
14,CN1C(=O)COC[C@@H]1[C@H](O)c1ccc(NC(=O)C2CC2)cc1 [CBK289057],128.726
15,CC1(C)CC(=O)c2sc(NC(=O)c3cncnc3)nc2C1 [CBK144107],112.431
16,CCOc1ccc(C(=O)Nc2nonc2CC)cc1 [CBK287287],124.455
17,CC(=O)NC[C@H]1C[C@@H]2CCN1C[C@@H]2c1cc(-c2ccco2)nc(C)n1 [CBK289128],119.369
18,CN(C)c1cccc(-c2cnc3[nH]c(=O)n(-c4ccc5[nH]ccc5c4)c3n2)c1 [CBK064682],134.102
19,Cc1noc(C)c1CCC(=O)NCc1cccc(C#N)c1 [CBK305938],127.202
